Reference: the supplement of paper PMC10849652
Some of the results follow.

Amino acid sequences for entries named in this document (tags omitted). A change or cut given only in a name is not applied to a line headed by its entry.
UniProt O75326: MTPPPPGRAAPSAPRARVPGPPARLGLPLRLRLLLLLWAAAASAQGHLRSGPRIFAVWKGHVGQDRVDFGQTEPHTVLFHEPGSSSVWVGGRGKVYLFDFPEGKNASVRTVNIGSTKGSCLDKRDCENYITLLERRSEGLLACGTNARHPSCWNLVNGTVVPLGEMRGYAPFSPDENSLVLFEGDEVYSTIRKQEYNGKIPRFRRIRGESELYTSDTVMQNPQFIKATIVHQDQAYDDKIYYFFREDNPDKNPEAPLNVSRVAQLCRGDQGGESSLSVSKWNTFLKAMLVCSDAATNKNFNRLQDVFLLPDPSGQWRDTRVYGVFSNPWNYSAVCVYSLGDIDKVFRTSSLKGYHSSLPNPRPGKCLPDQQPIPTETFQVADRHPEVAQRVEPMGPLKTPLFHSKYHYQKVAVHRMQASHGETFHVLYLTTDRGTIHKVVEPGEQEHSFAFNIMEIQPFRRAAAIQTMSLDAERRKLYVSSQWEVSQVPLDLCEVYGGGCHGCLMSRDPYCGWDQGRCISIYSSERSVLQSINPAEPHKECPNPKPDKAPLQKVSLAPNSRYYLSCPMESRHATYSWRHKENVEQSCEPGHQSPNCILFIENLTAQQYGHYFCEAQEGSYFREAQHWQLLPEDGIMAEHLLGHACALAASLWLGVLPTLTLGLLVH
UniProt Q96LD8: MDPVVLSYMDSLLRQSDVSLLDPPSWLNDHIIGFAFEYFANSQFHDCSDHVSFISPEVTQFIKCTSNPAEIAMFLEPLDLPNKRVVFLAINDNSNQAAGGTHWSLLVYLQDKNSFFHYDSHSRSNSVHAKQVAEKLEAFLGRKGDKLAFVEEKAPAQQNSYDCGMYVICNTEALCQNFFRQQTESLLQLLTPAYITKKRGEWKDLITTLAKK
UniProt Q9NX18: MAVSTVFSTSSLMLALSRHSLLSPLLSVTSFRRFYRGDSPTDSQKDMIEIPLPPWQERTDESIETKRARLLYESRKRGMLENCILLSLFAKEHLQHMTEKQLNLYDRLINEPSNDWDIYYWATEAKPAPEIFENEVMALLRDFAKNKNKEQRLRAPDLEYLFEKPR
UniProt Q15019: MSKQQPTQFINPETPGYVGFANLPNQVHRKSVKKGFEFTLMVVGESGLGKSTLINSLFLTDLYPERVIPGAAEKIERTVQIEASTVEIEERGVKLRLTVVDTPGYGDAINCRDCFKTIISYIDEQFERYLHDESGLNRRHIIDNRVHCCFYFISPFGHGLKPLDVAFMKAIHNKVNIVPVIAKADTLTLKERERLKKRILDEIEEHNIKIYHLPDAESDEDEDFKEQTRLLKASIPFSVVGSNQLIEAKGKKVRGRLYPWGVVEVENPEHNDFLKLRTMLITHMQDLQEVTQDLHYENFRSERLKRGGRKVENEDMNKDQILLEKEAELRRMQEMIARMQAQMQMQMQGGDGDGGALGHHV
UniProt Q9NRP4: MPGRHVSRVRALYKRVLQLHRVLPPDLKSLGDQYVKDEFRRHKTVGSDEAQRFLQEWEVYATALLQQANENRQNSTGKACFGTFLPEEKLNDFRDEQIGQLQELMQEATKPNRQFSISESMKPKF
UniProt Q14151: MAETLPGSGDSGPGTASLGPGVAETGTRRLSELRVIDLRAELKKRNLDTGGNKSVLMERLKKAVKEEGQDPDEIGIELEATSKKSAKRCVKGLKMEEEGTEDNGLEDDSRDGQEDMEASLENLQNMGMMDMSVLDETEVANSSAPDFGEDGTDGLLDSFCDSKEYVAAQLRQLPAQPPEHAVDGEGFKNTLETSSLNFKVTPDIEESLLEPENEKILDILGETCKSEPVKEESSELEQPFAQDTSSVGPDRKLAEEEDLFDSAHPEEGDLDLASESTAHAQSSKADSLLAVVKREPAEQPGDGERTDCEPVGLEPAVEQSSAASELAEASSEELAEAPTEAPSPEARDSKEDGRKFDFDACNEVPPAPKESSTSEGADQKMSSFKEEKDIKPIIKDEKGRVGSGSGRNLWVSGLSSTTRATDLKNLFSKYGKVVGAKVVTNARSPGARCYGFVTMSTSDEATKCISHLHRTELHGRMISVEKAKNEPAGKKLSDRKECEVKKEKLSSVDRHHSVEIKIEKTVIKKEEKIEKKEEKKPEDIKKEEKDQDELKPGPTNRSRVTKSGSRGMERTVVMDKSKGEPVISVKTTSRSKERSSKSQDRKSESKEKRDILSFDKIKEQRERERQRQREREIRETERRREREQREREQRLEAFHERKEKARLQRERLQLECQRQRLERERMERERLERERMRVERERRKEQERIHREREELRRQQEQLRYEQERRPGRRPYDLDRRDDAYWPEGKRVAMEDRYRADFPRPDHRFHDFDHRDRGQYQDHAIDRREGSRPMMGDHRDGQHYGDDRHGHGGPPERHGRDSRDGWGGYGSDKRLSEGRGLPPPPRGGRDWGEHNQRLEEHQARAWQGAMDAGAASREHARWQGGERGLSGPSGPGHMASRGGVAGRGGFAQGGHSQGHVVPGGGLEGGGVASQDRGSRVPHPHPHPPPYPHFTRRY
UniProt P21912: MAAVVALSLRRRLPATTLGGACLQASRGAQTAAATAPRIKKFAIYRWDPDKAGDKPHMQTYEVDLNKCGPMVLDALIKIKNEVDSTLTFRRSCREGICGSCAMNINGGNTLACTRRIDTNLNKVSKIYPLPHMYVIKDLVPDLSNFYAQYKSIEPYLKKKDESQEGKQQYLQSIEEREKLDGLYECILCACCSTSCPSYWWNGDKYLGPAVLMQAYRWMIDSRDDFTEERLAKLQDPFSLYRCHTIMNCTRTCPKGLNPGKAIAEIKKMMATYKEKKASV
UniProt Q13228: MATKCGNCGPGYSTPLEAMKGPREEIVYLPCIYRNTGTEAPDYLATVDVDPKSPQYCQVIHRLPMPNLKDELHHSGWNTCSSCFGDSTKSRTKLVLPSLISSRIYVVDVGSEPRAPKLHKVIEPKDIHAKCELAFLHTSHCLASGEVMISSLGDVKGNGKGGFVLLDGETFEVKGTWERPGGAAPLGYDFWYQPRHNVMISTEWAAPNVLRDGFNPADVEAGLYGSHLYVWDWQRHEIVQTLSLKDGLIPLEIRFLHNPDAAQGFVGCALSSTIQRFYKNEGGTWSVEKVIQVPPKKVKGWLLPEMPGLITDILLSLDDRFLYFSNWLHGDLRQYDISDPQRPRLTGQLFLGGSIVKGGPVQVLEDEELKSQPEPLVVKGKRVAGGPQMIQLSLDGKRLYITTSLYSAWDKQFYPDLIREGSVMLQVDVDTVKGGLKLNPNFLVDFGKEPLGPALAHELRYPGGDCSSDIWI
UniProt O14828: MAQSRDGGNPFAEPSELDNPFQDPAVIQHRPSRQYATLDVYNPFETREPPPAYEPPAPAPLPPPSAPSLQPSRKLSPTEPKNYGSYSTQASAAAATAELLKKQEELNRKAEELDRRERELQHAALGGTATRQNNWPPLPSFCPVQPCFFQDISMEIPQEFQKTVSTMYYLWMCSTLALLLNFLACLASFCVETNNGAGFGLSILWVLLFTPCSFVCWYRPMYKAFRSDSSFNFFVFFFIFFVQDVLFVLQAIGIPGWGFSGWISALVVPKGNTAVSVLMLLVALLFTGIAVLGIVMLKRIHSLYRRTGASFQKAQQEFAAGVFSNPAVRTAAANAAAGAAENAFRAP
UniProt Q96GA7: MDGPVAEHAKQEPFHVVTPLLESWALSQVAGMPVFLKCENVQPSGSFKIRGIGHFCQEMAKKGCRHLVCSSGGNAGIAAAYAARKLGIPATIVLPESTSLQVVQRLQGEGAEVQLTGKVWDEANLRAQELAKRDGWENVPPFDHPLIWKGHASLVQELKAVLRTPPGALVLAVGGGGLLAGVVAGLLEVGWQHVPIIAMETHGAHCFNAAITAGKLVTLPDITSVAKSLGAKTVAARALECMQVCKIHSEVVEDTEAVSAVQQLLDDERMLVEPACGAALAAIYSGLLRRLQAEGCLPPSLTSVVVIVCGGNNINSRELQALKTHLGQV
UniProt Q9BW04: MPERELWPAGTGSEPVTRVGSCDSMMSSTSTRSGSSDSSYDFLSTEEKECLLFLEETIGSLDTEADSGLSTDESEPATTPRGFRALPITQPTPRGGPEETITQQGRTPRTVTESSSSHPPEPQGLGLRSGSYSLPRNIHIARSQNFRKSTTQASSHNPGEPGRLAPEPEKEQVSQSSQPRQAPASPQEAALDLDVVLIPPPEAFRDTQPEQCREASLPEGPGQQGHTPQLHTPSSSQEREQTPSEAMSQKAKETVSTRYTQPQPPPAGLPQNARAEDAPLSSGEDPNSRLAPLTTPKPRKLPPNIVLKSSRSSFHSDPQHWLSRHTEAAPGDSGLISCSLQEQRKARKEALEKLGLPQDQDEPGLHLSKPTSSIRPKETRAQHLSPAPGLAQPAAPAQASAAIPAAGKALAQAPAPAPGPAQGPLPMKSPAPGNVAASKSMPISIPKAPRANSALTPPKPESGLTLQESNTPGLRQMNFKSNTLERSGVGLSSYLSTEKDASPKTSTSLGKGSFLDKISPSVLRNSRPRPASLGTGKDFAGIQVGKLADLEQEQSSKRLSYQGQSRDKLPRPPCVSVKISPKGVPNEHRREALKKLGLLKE
UniProt Q9Y6U3: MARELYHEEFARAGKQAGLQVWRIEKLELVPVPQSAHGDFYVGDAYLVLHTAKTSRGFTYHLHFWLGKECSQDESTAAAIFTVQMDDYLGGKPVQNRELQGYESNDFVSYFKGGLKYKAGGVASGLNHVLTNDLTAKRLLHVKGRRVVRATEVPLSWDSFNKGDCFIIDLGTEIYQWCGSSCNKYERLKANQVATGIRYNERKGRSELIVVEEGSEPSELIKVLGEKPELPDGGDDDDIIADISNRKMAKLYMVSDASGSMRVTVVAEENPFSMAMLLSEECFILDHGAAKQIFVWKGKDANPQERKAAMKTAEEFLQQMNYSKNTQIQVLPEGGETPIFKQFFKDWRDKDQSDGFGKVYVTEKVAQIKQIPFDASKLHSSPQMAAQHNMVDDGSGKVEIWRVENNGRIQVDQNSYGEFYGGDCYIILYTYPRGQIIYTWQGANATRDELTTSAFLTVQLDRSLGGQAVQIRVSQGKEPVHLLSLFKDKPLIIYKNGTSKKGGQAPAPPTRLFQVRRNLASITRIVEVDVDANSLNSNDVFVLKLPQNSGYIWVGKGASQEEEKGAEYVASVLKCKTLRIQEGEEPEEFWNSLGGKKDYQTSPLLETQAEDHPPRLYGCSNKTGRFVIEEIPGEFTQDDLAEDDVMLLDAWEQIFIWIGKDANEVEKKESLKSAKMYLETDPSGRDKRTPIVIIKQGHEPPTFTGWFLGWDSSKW
UniProt Q14141: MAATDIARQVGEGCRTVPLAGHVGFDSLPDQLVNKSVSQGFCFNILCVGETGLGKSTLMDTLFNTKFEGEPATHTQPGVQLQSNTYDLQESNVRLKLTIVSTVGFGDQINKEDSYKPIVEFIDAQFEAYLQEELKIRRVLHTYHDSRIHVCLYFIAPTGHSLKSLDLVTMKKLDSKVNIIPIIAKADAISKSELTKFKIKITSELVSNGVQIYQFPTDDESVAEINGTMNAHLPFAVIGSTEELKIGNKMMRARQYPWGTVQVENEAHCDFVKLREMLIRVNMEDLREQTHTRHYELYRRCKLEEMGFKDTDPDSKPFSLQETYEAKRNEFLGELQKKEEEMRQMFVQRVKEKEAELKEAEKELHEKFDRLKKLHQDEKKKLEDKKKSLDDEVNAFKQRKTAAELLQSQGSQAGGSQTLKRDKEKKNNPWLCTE
UniProt O75396: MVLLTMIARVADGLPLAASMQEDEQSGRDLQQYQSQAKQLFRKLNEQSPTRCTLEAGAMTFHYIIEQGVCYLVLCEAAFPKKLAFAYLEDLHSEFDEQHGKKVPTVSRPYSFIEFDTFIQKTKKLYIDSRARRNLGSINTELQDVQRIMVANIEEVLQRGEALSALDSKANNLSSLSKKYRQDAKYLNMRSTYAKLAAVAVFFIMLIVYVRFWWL

What was measured:
Experiment in all cases: log2 fold change, soluble protein after heating vs DMSO (PISA); higher = thermal stabilisation; K562 lysate, 10 uM; active = over 0.2 and 3.5 SD of the protein, either way, in both replicates (recomputed)
[1] = compound: C1=CC=C(C=C1)[C@H](COC2=CC3=C(C=C2)NC(=O)N3)NC(=O)C4=CC=CN(C4=O)CC5=CC(=C(C=C5)F)F
Outline: (§1)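 Values give the log-two fold change in thermal stability against solvent controls, from duplicates. Crude K562 extract at 1 mg/mL protein, made by dounce homogenisation in PBS pH 7.4 with 1 mM MgCl2, was treated with 10 μM compound for 30 min. After 3 min heating across 48°C-58°C, aliquots were pooled, adjusted to 0.5% NP-40 at 4°C and centrifuged at 21,000xg for 90 min. The supernatant was measured by TMTpro 16plex LC-MS/MS with channel sums equalised.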

[2] = compound: CC1=C(SC2=C1C(=N[C@H](C3=NN=C(N32)C)CC(=O)N)C4=CC=C(C=C4)Cl)C
Outline: as §1

[3] = compound: CC1=C2C(=CC=C1)N=C(N(C2=O)C3=CC=CC=C3C)CN4C=NC5=C(N=CN=C54)N
Outline: as §1

[4] = compound: Cc1sc2c(c1C)C(c1ccc(Cl)cc1)=N[C@@H](CC(=O)OC(C)(C)C)c1nnc(C)n1-2
Outline: as §1

[5] = compound: c1ccc([C@@H]2C[C@H]2NC2CCNCC2)cc1
Outline: as §1

Measured: log2 fold change

SEMA7A (UniProt O75326)
inactive: [1] 0.052 | [2] 0.017 | [3] 0.035 | [4] -0.023 | [5] 0.038

SENP8 (UniProt Q96LD8)
inactive: [1] -0.011 | [2] -0.045 | [3] -0.259 | [4] -0.015

SDHAF2 (UniProt Q9NX18)
inactive: [1] 0.097 | [2] 0.003 | [3] -0.011 | [4] -0.021

SEPTIN2 isoform 2 (UniProt Q15019)
inactive: [1] 0.014 | [2] 0.014 | [3] -0.007 | [4] -0.033 | [5] -0.039

SDHAF3 (UniProt Q9NRP4)
inactive: [1] -0.027 | [2] 0.055 | [3] 0.022 | [4] 0.036 | [5] 0.025

SAFB2 (UniProt Q14151)
inactive: [1] 0.03 | [2] -0.009 | [3] -0.012 | [4] 0.027 | [5] -0.042

SDHB (UniProt P21912)
inactive: [1] 0.102 | [2] -0.009 | [3] -0.023 | [4] 0.01 | [5] -0.002

SELENBP1 isoform 4 (UniProt Q13228)
inactive: [1] 0.014 | [2] -0.006 | [3] 0.014 | [4] 0.019 | [5] 0.025

Random excerpt: 2 records from the list, in no set order.
SAFB2 (UniProt Q14151)
inactive: [1] 0.03 | [2] -0.009 | [3] -0.012 | [4] 0.027 | [5] -0.042

SELENBP1 isoform 4 (UniProt Q13228)
inactive: [1] 0.014 | [2] -0.006 | [3] 0.014 | [4] 0.019 | [5] 0.025

Additional records follow:

SCAMP3 isoform 2 (UniProt O14828)
inactive: [1] 0.217 | [2] -0.214 | [3] 0.046 | [4] 0.079 | [5] 0.05

SDSL (UniProt Q96GA7)
inactive: [1] -0.087 | [2] 0.016 | [3] -0.012 | [4] -0.021 | [5] -0.011

SARG (UniProt Q9BW04)
inactive: [1] 0.013 | [2] -0.021 | [3] 0.085 | [4] -0.031 | [5] -0.11

SCIN (UniProt Q9Y6U3)
inactive: [1] -0.001 | [2] 0.012 | [3] -0.005 | [4] -0.034 | [5] 0.137

SEPTIN6 (UniProt Q14141)
inactive: [1] -0.01 | [2] -0.029 | [3] -0.011 | [4] 0.042 | [5] 0.036

SCYL3 isoform 2 (UniProt Q8IZE3)
inactive: [1] -0.047 | [2] 0.018 | [3] 0.027 | [4] 0.009 | [5] 0.106

SEC22B (UniProt O75396)
inactive: [1] -0.017 | [2] 0.016 | [3] 0.029 | [4] 0.037 | [5] 0.037
